From patent US20130171061A1
Results are given in words; binding and its absence hold for the method and conditions named. Binding can be weak; no strength is given. One block for each binder: values may come before it.

Target: Human transferrin receptor (purified, SCIPAC Ltd.) (human) (UniProt P02786)
Test: monoclonal phage ELISA on coated human transferrin receptor

binding: binds
B1: VHD4 anti-human transferrin receptor domain antibody (VHH)
VHH: QVQLLESGGGLVQPGGSLRLSCAASGFKFSAEYMSWVRQAPGKGLEWVSTIKMNNGSTYYADSVKGRFTISRDNSKHTLYLQMNSLRAEDTAVYYCARPMAWRGNVVRAENLRFWGQGTLVTVSS

binding: binds
B2: VHA3 anti-human transferrin receptor domain antibody (VHH)
VHH: QVQLLESGGGLVQPGGSLRLSCAASGFIFNTEYMAWVRQAPGKGLEWVSAIKEQSGSTYYADSVKGRFTISRDNSKNTLYLQMNSLRAEDTAVYYCAAQMHHEAEVKFWGQGTLVTVSS
